Results reported in PubChem BioAssay AID624297 (National Center for Advancing Translational Sciences (NCATS), 2012).
Where “and” joins values, the source holds several entries; their conditions need not be identical. Identical values can stand only once. About 6,200 (1.8%) of roughly 340,000 compounds were called active. Inconclusive means that the source gave no clear call. Such entries were picked first, then a sample of the others. Calls follow the shape of the dose curve; as a rule, active = well fitted activation curve with a large enough effect; inconclusive = small, poorly fitted or top-dose-only effect; inactive = no such curve, though single readings can be large or run the other way. Where the call is inconclusive, the potency comes from a doubtful curve fit.

test: A quantitative high throughput screen for small molecules that induce DNA re-replication in SW480 colon adenocarcinoma cells.; also: nearly all actives have a fitted effect of over 55% in size; as to re-replication activation: % of control where 0% means no effect; conditions: Hoechst DNA content imaging, 48 h; re-replication activation: at 46.1 µM (top of the series) unless noted
Summary of the method: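 Compounds, transferred as 23 nL by pin tool, were incubated with cells for 48 hr; DNA content per nucleus was then quantified by Hoechst staining and fluorescence plate imaging.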
Potency is read from the fitted curve at half-maximal effect.

| SMILES | re-replication activation | Potency |
| --- | --- | --- |
| O=C(NCCCN1CCCC1)c1ccc(CS(=O)(=O)c2ccc(Cl)cc2)o1 | inconclusive: 108% [activator] |  |
| COc1ccc(NC(=O)c2ccc(CN3CCc4ccccc4C3)cc2)cc1OC |  | inconclusive: 14.6 µM [activator, single point] |
| O=C(N/N=C\c1c(O)ccc2ccccc12)c1ccc(O)cc1 |  | inconclusive: 2.06 µM [activator, full curve, poor fit] |
| Cc1ccc(NC(=S)N2CCN(C)CC2)c(C)c1 | inactive: 0.116% |  |
| COC(=O)c1ccc(CSc2nc3sc(C)c(C)c3c(=O)[nH]2)cc1 | inactive: -31.4% |  |
| CCN(CC)CCNc1nc(-n2nc(C)cc2C)nc2sc3c(c12)CC(C)(C)OC3 |  | inconclusive: 16.4 µM [activator, single point] |
| COc1ccc(CCC(=O)Nc2ncc(C)s2)cc1OC |  | inconclusive: 3.26 µM [activator, single point] |
| Cc1nc2cc(NC(=O)c3ccc(Cl)cc3)ccc2n1C | inconclusive: -31.7% [activator] |  |
| CCCCCCCn1c(=N)n(CC(=O)c2ccco2)c2ccccc21 |  | inconclusive: 14.1 µM [activator, single point] |
| O=C(Nc1nc(-c2ccccn2)cs1)c1ccc(F)c(S(=O)(=O)N2CCOCC2)c1 |  | inconclusive: 6.51 µM [activator, single point] |
| COc1cc([N+](=O)[O-])ccc1NC(=S)NNC(=O)c1ccc2c(c1)OCO2 |  | inconclusive: 3.26 µM [activator, full curve] |
| COc1cc(C2C3=C(COC3=O)Oc3cc4c(cc32)OCO4)cc(OC)c1OC (stereo not given) |  | active: 0.13 µM |
| CCN1CCN(CC(=O)Nc2cc(S(=O)(=O)N(CC)c3ccccc3)ccc2Cl)CC1 |  | inconclusive: 23.1 µM [activator, single point] |
| O=C(COc1ccccc1)NCC(c1ccco1)N1CCN(c2ccccc2)CC1 (stereo not given) |  | inconclusive: 6.51 µM [activator, full curve, poor fit] |
| COc1ccc(NC(=O)CCCN2C(=O)CN(C)C2=O)c(OC)c1 |  | inconclusive: 29.1 µM [activator, partial curve, poor fit] |
| Cc1cnc(NC(=O)Cc2ccccc2Cl)s1 |  | inconclusive: 0.231 µM [activator, full curve, poor fit] |
| COC(=O)C1=C(C)NC(C)=C(C(=O)OCCCN2CCC(c3ccccc3)(c3ccccc3)CC2)C1c1cccc([N+](=O)[O-])c1 (stereo not given) |  | inconclusive: 11.9 µM [activator, single point] |
| COc1ccc(-c2cnnn2-c2ccc(NC(=O)c3ccc(S(=O)(=O)N4CCCCC4)cc3)cc2)cc1OC |  | inconclusive: 4.11 µM [activator, full curve] |
| CN1C2C=C(N(CCc3c[nH]c4ccccc34)C(=O)c3ccc(Cl)cc3)CC1CC2 (stereo not given) |  | inconclusive: 32.6 µM [activator, partial curve, poor fit] |
| N#Cc1ccc(N2CCc3ccccc3C2)c([N+](=O)[O-])c1 |  | inconclusive: 29.1 µM [activator, single point] |
| CN(C(=O)c1cccc(NC(=O)Cc2cccc(NC(=O)C3CCN(C(=O)c4ccccc4)CC3)c2)c1)C1CCCC1 |  | inconclusive: 0.92 µM [activator, full curve, poor fit] |
| CC(=O)c1cc2c(cc1NC(=O)CSc1nc3ccccc3o1)OCO2 | inactive: -0.326% |  |

| SMILES | re-replication activation | Potency |
| --- | --- | --- |
| Cc1cc(C)c2c(N)c(C(=O)Nc3ccccc3Cl)sc2n1 |  | inconclusive: 8.2 µM [activator, partial curve] |
| O=C(NCc1cccc(C(F)(F)F)c1)C1CC(c2ccccc2C(F)(F)F)=NO1 (stereo not given) |  | inconclusive: 29.1 µM [activator, single point] |
| CCC(C)N1CCC2(CC1)N=c1c(c3c4c5c(C)c(O)c3c(O)c1=NC(=O)C(C)=CC=C[C@H](C)[C@H](O)[C@@H](C)[C@@H](O)[C@@H](C)[C@H](OC(C)=O)[C@H](C)[C@@H](OC)C=CO[C@@](C)(O5)C4=O)N2 (stereo not given in full) |  | inconclusive: 8.91 µM [activator, single point] |
| COC(=O)c1c(-c2ccccc2)noc1-c1ccccc1 |  | inconclusive: 29.1 µM [activator, single point] |
| CCOC(=O)C1=C(N)n2c(s/c(=C\c3ccco3)c2=O)=C(C(=O)OCC)C1c1ccco1 (stereo not given) |  | inconclusive: 5.17 µM [activator, single point] |
| COc1ccc(CCNC(=O)CC(Cc2ccc(C)cc2)C(=O)O)cc1OC (stereo not given) | inactive: -30.3% |  |
| COc1cccc(N2CCN(c3ccc4nnc(CCC(=O)Nc5ccc(C)cn5)n4n3)CC2)c1 | inactive: 27.7% |  |
| O=C(COC(=O)c1cnc(Cl)c(Cl)c1)Nc1ccc(S(=O)(=O)N2CCCC2)cc1 | inactive: -5.61% |  |
| COc1ccc(C2=NN(c3nc(-c4ccccc4)c(CC(=O)O)s3)C(c3ccco3)C2)cc1 (stereo not given) |  | inactive and inconclusive: 20.6 µM [activator, single point] |
| N#Cc1c(N)n(CCc2ccc(F)cc2)c2nc3ccccc3nc12 |  | active: 14.6 µM |
| CCN(CC)S(=O)(=O)c1cccc(C(=O)OCC(=O)C23CC4CC(CC(C4)C2)C3)c1 | inactive: 5.78% |  |
| COc1ccc(CCN2CC(C(=O)NCCc3ccc(C(F)(F)F)cc3)CCC2=O)cc1 (stereo not given) |  | inconclusive: 29.1 µM [activator, single point] |
| COc1ccccc1/C=N/Nc1cc(C)nc2ccc(C)cc12 | inactive: 2.93% |  |
| O=C(CCN1CCOCC1)c1ccccc1 | inactive: 199% |  |
| CCN(CC)c1ccc(NC(=O)CN2CCN(c3nc(C)cc(C)n3)CC2)cc1 | inactive: 0.833% |  |
| COc1ccccc1-c1c(C)nn2c(N)c(-c3ccc(Cl)cc3)cnc12 | inactive: -0.144% |  |
| COC(=O)c1ccc(NC(=O)C(=O)N2CCN(C(=S)Nc3ccccc3OC)CC2)cc1 |  | inconclusive: 3.26 µM [activator, partial curve, poor fit] |
| CC(C)c1nc(SCC(=O)Nc2nc3c(s2)CCCC3)c2ccccc2n1 |  | inconclusive: 16.4 µM [activator, partial curve, poor fit] |
| C=CCNC(=O)c1ccc(CN2CCC(Cc3ccccc3)CC2)cc1 |  | inconclusive: 0.206 µM [activator, full curve, poor fit] |
| O=C(Nc1ccc(S(=O)(=O)Nc2ncccn2)cc1)C1COc2ccccc2O1 (stereo not given) | inactive: -7.83% |  |
| CCOc1cc(C(=O)N/N=C/C(Br)=C/c2ccccc2)cc(OCC)c1OCC |  | inconclusive: 9.2 µM [activator, single point] |
| CN1c2ccccc2C(=O)NC1c1ccc([N+](=O)[O-])s1 (stereo not given) |  | inconclusive: 7.31 µM [activator, partial curve, poor fit] |

| SMILES | re-replication activation | Potency |
| --- | --- | --- |
| CN(C)CCCN(C(=O)c1ccc(S(=O)(=O)N2CCc3ccccc32)cc1)c1nc2c(Cl)cccc2s1 |  | inconclusive: 29.1 µM [activator, single point] |
| Fc1ccc(N2N=C(c3cccs3)CC2c2ccccc2)cc1 (stereo not given) |  | active: 5.8 µM |
| COc1ccc(C(=O)C(CCCCC(CN(C)C)C(=O)c2ccc(OC)cc2)CN(C)C)cc1 (stereo not given) |  | inconclusive: 29.1 µM [activator, single point] |
| CCN(C(=O)Cc1cccs1)c1nnc(-c2cc(OC)c(OC)c(OC)c2)s1 | inactive: -9.3% |  |
| CCOC(=O)C1(CCCc2ccccc2)CCN(Cc2nccn2CC)CC1 |  | inconclusive: 29.1 µM [activator, single point] |
| O=c1[nH][nH]c(C(F)(F)F)c1C=Nc1ccccc1 | inactive: -16.4% |  |
| CCOc1ccc(OCC)c(NC(=O)C2CCCN(c3ncccn3)C2)c1 (stereo not given) | inactive: -3.15% |  |
| COc1ccc(N(CC(=O)Nc2cc(C)ccc2OC)S(=O)(=O)c2c(C)noc2C)cc1 |  | inconclusive: 18.4 µM [activator, single point] |
| CCC1CCc2sc(C(=O)NCC(c3ccccc3OC)N3CCCC3)cc2C1 (stereo not given) |  | inconclusive: 29.1 µM [activator, single point] |
| Cc1ccc(C(=O)Nc2ccccc2[N+](=O)[O-])cc1S(=O)(=O)N1CCOCC1 |  | inconclusive: 18.4 µM [activator, single point] |
| O=C(COCc1cc(-c2ccc3c(c2)OCO3)on1)N1CCN(c2cccc(C(F)(F)F)c2)CC1 |  | inconclusive: 20.6 µM [activator, single point] |
| C/C(=N\NC(=O)c1ccoc1C)c1ccccc1O |  | active: 2.31 µM |
| Cc1cc(-c2cc(-c3ccc(Cl)cc3)on2)nc(NC2CCCC2)n1 | inactive: 92.8% |  |
| COc1ccc(NS(=O)(=O)c2ccc(N3CCOCC3)c(NC(=O)c3ccccc3Br)c2)cc1 |  | inconclusive: 29.1 µM [activator, single point] |
| NC(=O)c1nsc(C(=O)N(CC(=O)NC2CCCC2)Cc2ccc3c(c2)OCO3)c1N |  | inconclusive: 0.651 µM [activator, partial curve, poor fit] |
| CCN(CC1CCCO1)C(=O)c1cc(COc2ccccc2SC)on1 (stereo not given) |  | inconclusive: 25.9 µM [activator, partial curve, poor fit] |
| Cc1cc(C(=O)NN=C2CCCCCC2)c(C)o1 |  | inconclusive: 29.1 µM [activator, single point] |
| Cc1[nH]c2ccccc2c1/C=N/NC(=O)CCC(=O)NCc1ccccc1 |  | inconclusive: 11.6 µM [activator, partial curve, poor fit] |
| Cc1cccc(Cn2nnc3c2C(=O)c2ccccc2C3=O)c1 |  | inconclusive: 23.1 µM [activator, single point] |
| CC(C)C(=O)NC(=S)N1CCc2ccccc21 |  | inconclusive: 0.116 µM [activator, full curve, poor fit] |
| CN(Cc1ccccc1)C(=O)c1[nH]cnc1C(=O)N[C@@H](Cc1ccccc1)C(=O)OCc1ccccc1 |  | inconclusive: 0.58 µM [activator, full curve, poor fit] |
